In article PMC7819943, “Rice protein-binding microarrays: a tool to detect cis-acting elements near promoter regions in rice” one finds binding signal data, which are given here for 42 sequences.

Amino acid sequences for entries named in this document (tags omitted).
UniProt Q0JBA9, entry or part of it: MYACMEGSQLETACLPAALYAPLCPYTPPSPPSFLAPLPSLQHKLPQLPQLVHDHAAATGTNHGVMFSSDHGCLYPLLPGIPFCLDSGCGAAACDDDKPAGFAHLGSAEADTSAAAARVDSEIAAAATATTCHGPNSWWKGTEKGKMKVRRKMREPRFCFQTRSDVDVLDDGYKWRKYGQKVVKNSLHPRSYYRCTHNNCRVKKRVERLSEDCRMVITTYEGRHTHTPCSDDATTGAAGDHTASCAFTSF

The other results are listed elsewhere or left out.

The assay concerns the target OsWRKY34 (Oryza sativa, UniProt Q0JBA9 1-250). As to the kind of experiment: protein-binding microarray (RPBM); PBS, 2% BSA, 51.3 ng/ul salmon testes DNA, 50 uM zinc acetate, 200 nM TF, 25 C, 1 h; high values mean tight binding. To be noted: protein: recombinant; tags: N-terminal polyhistidine and DsRed monomer fusion (pET32a); label: CyDye5-dUTP incorporated in the synthesized complementary strand; 3' TTTTT single-stranded linker to array surface; dsDNA, one strand shown. The essentials:
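Transcription factors were each fused at the N-terminus to a polyhistidine tag plus DsRed and expressed in E. coli BL21-CodonPlus before Ni–NTA purification. Binding to a double-stranded custom Agilent array was carried out with 200 nM protein at 25 °C for 1 h in PBS, 2% BSA, salmon testes DNA and 50 µM zinc acetate. The binding signal is per-feature fluorescence intensity, in arbitrary units, on an Axon 4000B scanner.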
Consider “AGATTTGGCGCCTCTTTTCATCGCCATCTTTGACCGCGCACGGAGTCACCTAGTGCAG”, for which the binding signal was 8800 fluorescence intensity (a.u.).
As for “ATCTCTCCTCTCGCTCTCTAGGTGTTTATCACAAACACTCCGGAGTCACCTAGTGCAG”, the figure is 8120 fluorescence intensity (a.u.).
As for “CATGTTGTTCTGTTTGATGTTGCCCACTACGGTCTTTAGTCGGAGTCACCTAGTGCAG”, the figure is 10900 fluorescence intensity (a.u.).
As to “TGCTCTTGCTCTTCTGGTTTCATGAGACGCGTGTTGCCATCGGAGTCACCTAGTGCAG”, the binding signal is 8400 fluorescence intensity (a.u.).
Take “GATCTGTTCTTTGTTATGCTGCCATGTTCTACCTGAAGATCGGAGTCACCTAGTGCAG”: the binding signal is 9250 fluorescence intensity (a.u.).
As for “GGCGGCGGGTGGGAGGGGCGGCGATGGCTTCGGCAGCCGCCGGAGTCACCTAGTGCAG”, the binding signal was 9000 fluorescence intensity (a.u.).
As for “TTTAATTAATTATGTGTTAATAGTTTTGCATGTCTCGTATCGGAGTCACCTAGTGCAG”, the figure is 8700 fluorescence intensity (a.u.); as for “TTTTCCTCCTTATCCGATGGGCCTTCCGTTTCTCAAGACACGGAGTCACCTAGTGCAG”, 9130 fluorescence intensity (a.u.).
With “TCTCAGCAGGGGAGGGGAGGGGAGGGGATCCTGGTGAGGTCGGAGTCACCTAGTGCAG”, the binding signal was 15700 fluorescence intensity (a.u.).
Consider “CTTTTTTTCCAACGTTTGACCATTTGTCTTATTCAAAAAACGGAGTCACCTAGTGCAG”, for which the binding signal was 8560 fluorescence intensity (a.u.).
Take “AAAATGTTGTTTTTTTCTTCACTTTTGTTTTCCTTTTTTTCGGAGTCACCTAGTGCAG”: the binding signal was 9300 fluorescence intensity (a.u.).
As for “CATGACAAGTGAATGCAGCGACCTTTTTGCCTTTGCTTTGCGGAGTCACCTAGTGCAG”, the figure is 8420 fluorescence intensity (a.u.); as for “GACACAACTTTTTTTTAAAAAAAAAAACTCCAAGCAACATCGGAGTCACCTAGTGCAG”, 8480 fluorescence intensity (a.u.); as for “ACAACAGCTTGCAACGCTTACTCTTTTTTATTCCTTCTATCGGAGTCACCTAGTGCAG”, 8690 fluorescence intensity (a.u.).
Turning to “TTTACTCACTCCCAAAATTTAAATTTCATATATCTGTATCCGGAGTCACCTAGTGCAG”, the binding signal is 9120 fluorescence intensity (a.u.).
For the sequence “CAACTACCGACCTCACTTCCACGCCCACCGTCGTCGACTCCGGAGTCACCTAGTGCAG”, the binding signal was 8160 fluorescence intensity (a.u.).
For the sequence “TTTGTGTCACTTTTAAACATGTTCACGTCATTATTTTAGTCGGAGTCACCTAGTGCAG”, the binding signal was 9290 fluorescence intensity (a.u.).
Consider “GGTTGGGTTGGTCTGAATGAACCTTTGAGCTGCGTCGCAACGGAGTCACCTAGTGCAG”, for which the binding signal is 11900 fluorescence intensity (a.u.).
For the sequence “CGCCATCCTCGCTGACCATCTTGTCCTTGCTGTCGCTGAGCGGAGTCACCTAGTGCAG”, the binding signal was 9200 fluorescence intensity (a.u.).
Consider “TACTAGGCTCTACTACACCCATTTCTACCTCACACACCTACGGAGTCACCTAGTGCAG”, for which the binding signal is 9410 fluorescence intensity (a.u.).
For the sequence “AGTTCATCATATCCAGTTGCATACTCGCTCCGTGTTTTAACGGAGTCACCTAGTGCAG”, the binding signal was 10700 fluorescence intensity (a.u.).
Turning to “CTTGTTTGGGCCTCTCGCGAGTTATCTATGTACCGCCGTACGGAGTCACCTAGTGCAG”, the binding signal was 10100 fluorescence intensity (a.u.).
For the sequence “TTATCCTATTTGTACCATATATTTTATGATATATTTCCTACGGAGTCACCTAGTGCAG”, the binding signal was 8180 fluorescence intensity (a.u.).
Take “TCTCGTGTTTTTCCTATTCCTCCGTTTTTTCAATCCTACACGGAGTCACCTAGTGCAG”: the binding signal was 10500 fluorescence intensity (a.u.).
Take “GCTAGGGGAGGGAGAGGCGGCGGCGGCGGTGGTAGCCGGACGGAGTCACCTAGTGCAG”: the binding signal is 9480 fluorescence intensity (a.u.).
Consider “GTTGTGAGTTTCTGCGTTGTACTGTGTAATTAAAAAAAAACGGAGTCACCTAGTGCAG”, for which the binding signal was 8810 fluorescence intensity (a.u.).
Consider “GTTCATACCGCTCTCGTTCGTTCGCGGCTCCTTCCTGCTGCGGAGTCACCTAGTGCAG”, for which the binding signal was 11300 fluorescence intensity (a.u.).
“TCCATGCCATCTGCTGAACAGACCCATGCATCCTTCAACTCGGAGTCACCTAGTGCAG”: the binding signal was 8920 fluorescence intensity (a.u.).
Take “AATCGTTAAGTTTCATCCCATTTCAATCGTTAAGTTTCATCGGAGTCACCTAGTGCAG”: the binding signal is 8700 fluorescence intensity (a.u.).
As for “ACTACAGTCCCTCGCCATGCATGCGCCGTCAGATGTCCAACGGAGTCACCTAGTGCAG”, the binding signal was 11500 fluorescence intensity (a.u.).
As for “AGGCTAGGCGGTTATATGTCACTCTCATGCATATTAGTCACGGAGTCACCTAGTGCAG”, the figure is 8870 fluorescence intensity (a.u.); as for “GGGCCTTAGTGGGTTCTCTTTGGGCCGGCCCCTGCATTTCCGGAGTCACCTAGTGCAG”, 9190 fluorescence intensity (a.u.).
In the case of “CCATGCTCGCCGGCGTATTCGGACACGGACAACAGCACCACGGAGTCACCTAGTGCAG”, the binding signal was 10700 fluorescence intensity (a.u.).
As for “ACCATACCACATCCTGCTACTCATAATCCATCTTGTTAAGCGGAGTCACCTAGTGCAG”, the figure is 8290 fluorescence intensity (a.u.); as for “GTGTTCAGGGCTAGGATCAGGGTAGGAGGGGAAATTCCTTCGGAGTCACCTAGTGCAG”, 8480 fluorescence intensity (a.u.); as for “TCCAATCTCCGTCTCCGCGTCTACTTCCGCAACTTCACCGCGGAGTCACCTAGTGCAG”, 13000 fluorescence intensity (a.u.).
Turning to “TACTGCCGTCGCCGTCGCCCCACGTTTCCTTCTCCAGTTTCGGAGTCACCTAGTGCAG”, the binding signal is 8300 fluorescence intensity (a.u.).
Consider “ATCATCCTCATCGTCATCGTCTCTCTTATCTTTTCTACGGCGGAGTCACCTAGTGCAG”, for which the binding signal is 13800 fluorescence intensity (a.u.).
Regarding “GGCTAAACATATTCTTTAGTCCCGTTTGTAACAGGAACCGCGGAGTCACCTAGTGCAG”, the binding signal was 8310 fluorescence intensity (a.u.).
In the case of “GGATGAAGAAGGCTTTCGGGGTTTGGGATGTCGCGGGGATCGGAGTCACCTAGTGCAG”, the binding signal was 8820 fluorescence intensity (a.u.).
As for “CCAGATCGACCGCCACCCCATTCGGATTCATCACCTCCATCGGAGTCACCTAGTGCAG”, the figure is 8250 fluorescence intensity (a.u.); as for “GCTGTATTCTGTGGAGTCGTATCCCAAGCCAATTTTATTTCGGAGTCACCTAGTGCAG”, 8440 fluorescence intensity (a.u.).
